In article PMC2077894:
Results are given in words; binding and its absence hold for the method and conditions named. Binding seen in cells or lysates may run through a third protein. For some of these results: A result given as binding can be weak or reduced; the word gives no strength. Tags and fused reporters may be left off the sequences shown.

Protein sequences, listed by entry. Tags and fused reporters are not part of them. Lines headed by an entry give the natural chain unless they say otherwise; changes in a name come on top.
UniProt Q9VS37: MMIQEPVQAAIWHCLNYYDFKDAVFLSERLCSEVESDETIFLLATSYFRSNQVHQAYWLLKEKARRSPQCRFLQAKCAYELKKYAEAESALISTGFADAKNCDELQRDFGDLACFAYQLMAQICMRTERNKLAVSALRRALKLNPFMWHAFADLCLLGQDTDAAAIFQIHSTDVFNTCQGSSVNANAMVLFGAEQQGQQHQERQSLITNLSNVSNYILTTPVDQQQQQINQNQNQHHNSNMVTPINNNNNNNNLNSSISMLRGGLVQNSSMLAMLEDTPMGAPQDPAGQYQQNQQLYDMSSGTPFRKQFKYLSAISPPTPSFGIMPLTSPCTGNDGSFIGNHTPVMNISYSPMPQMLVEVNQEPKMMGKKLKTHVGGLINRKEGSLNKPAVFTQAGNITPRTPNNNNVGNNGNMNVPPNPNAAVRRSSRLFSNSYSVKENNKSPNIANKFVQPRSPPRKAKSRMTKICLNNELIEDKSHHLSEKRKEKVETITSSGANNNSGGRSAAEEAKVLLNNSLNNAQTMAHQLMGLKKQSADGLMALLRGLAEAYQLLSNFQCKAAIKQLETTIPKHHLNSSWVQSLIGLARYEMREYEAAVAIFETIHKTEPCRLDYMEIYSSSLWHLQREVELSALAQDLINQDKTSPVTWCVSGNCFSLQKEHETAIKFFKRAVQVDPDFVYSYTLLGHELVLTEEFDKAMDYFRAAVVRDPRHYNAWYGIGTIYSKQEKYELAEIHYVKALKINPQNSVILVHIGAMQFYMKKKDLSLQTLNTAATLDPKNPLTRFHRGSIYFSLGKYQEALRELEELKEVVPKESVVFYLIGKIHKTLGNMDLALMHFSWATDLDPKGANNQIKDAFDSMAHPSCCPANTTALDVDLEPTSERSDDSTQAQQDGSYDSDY

T1: MYC-CORT (6xMYC-tagged CORT, product of cortex) (Drosophila) (UniProt Q960N3)
T1 sequence: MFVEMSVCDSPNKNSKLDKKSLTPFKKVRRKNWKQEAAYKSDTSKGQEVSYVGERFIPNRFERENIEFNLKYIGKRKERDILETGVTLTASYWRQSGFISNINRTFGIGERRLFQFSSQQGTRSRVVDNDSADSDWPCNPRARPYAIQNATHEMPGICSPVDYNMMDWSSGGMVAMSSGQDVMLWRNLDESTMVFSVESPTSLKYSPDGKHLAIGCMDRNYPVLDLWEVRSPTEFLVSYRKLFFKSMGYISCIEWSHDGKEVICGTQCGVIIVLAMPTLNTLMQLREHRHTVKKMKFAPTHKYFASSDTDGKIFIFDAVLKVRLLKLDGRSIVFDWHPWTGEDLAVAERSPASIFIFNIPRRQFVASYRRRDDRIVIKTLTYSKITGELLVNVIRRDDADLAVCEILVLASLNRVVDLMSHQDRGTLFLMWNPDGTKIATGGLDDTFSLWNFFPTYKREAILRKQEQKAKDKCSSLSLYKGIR

T2: PLU-MYC (Drosophila) (UniProt P42570)
T2 sequence: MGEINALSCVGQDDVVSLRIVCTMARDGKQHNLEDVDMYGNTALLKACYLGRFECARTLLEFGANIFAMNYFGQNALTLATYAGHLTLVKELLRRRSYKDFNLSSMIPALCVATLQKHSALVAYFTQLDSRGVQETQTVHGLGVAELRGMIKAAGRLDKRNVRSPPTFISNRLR


How the values were obtained:
[1] = biological target: T1, MYC-CORT (6xMYC-tagged CORT, product of cortex) (Drosophila); test: co-IP; anti-MYC (9E10) on Protein A Sepharose, whole ovary extracts (homogenized in 25 mM HEPES pH 7.5, 0.4 M NaCl), 2-4 h at 4 °C; washes in IP buffer (100 mM NaCl, 0.1% Triton X-100), one of them with 0.5 M NaCl added; immunoblot
PLU-MYC (Drosophila) = biological target: T2, PLU-MYC (Drosophila); test: as above
[2] = biological target: Cdc27 (Drosophila (endogenous in ovaries)) (UniProt Q9VS37); test: co-IP; reciprocal: affinity-purified rabbit anti-Cdc27 on Protein A Sepharose, whole ovary extracts from UAS-myc-cort/nos-gal4 females, 2-4 h at 4 °C; immunoblot with anti-MYC

binding [1] | binding (PLU-MYC (Drosophila)) | binding [2] | Molecule
binds | no binding | – | Cdc27 (from UniProt Q9VS37)
no binding | – | – | Morula (MR), the APC2 homolog in Drosophila
– | – | binds | MYC-CORT (6xMYC-tagged CORT, product of cortex) (protein, UniProt Q960N3 1-483) MFVEMSVCDSPNKNSKLDKKSLTPFKKVRRKNWKQEAAYKSDTSKGQEVSYVGERFIPNRFERENIEFNLKYIGKRKERDILETGVTLTASYWRQSGFISNINRTFGIGERRLFQFSSQQGTRSRVVDNDSADSDWPCNPRARPYAIQNATHEMPGICSPVDYNMMDWSSGGMVAMSSGQDVMLWRNLDESTMVFSVESPTSLKYSPDGKHLAIGCMDRNYPVLDLWEVRSPTEFLVSYRKLFFKSMGYISCIEWSHDGKEVICGTQCGVIIVLAMPTLNTLMQLREHRHTVKKMKFAPTHKYFASSDTDGKIFIFDAVLKVRLLKLDGRSIVFDWHPWTGEDLAVAERSPASIFIFNIPRRQFVASYRRRDDRIVIKTLTYSKITGELLVNVIRRDDADLAVCEILVLASLNRVVDLMSHQDRGTLFLMWNPDGTKIATGGLDDTFSLWNFFPTYKREAILRKQEQKAKDKCSSLSLYKGIR
